Reference: PubChem BioAssay AID743458 (Peter MacCallum Cancer Centre, 2014)
The deposit covers about 1,800 reagents; below is an unselected part. 732 of them (41%) were called active. 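Calls are per siRNA reagent; a gene was deemed confirmed only if most of its four siRNAs scored.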 Reagents against one gene are numbered here. No sequences are given here.

Aim: 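Find knock-downs that make vorinostat-resistant colon cancer cells sensitive again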 (follow-up of hits)
Cell system: human HCT116-VR colon cancer cells made resistant to vorinostat
Reagent: single siRNA or pool against human genes, 25 nM per single siRNA
Duration: about 72 h after transfection, including 24 h of drug
Conditions: vorinostat, 2.5 µM final, for 24 h
Measured: 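Cell viability by fluorescence and apoptosis by caspase 3/7 luminescence under vorinostat, background-corrected, averaged across two plate copies and given as fold change versus mock transfection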
Scale: viability relative to mock: higher = more living cells than mock; caspase activity relative to mock: higher = more apoptosis than mock
Rule for the call: 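An siRNA counts as active if classed as reduced viability or as caspase activation, otherwise inactive; a hit class needed wells that remained healthy in the absence of drug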

gene symbol | reagent | viability relative to mock | caspase activity relative to mock | viability hit class | caspase hit class | Call
CD79A | 1 | 0.2 | 4.62 | reduced viability | caspase activation | active
CD79A | 2 | 0.7 | 3.84 | no change | caspase activation | active
CD79A | 3 | 0.76 | 1.9 | no change | no change | inactive
CD79A | 4 | 0.68 | 2.05 | no change | no change | inactive
NAT8B | 1 | 0.28 | 4 | reduced viability | caspase activation | active
NAT8B | 2 | 0.93 | 1.04 | no change | no change | inactive
NAT8B | 3 | 0.94 | 0.99 | no change | no change | inactive
NAT8B | 4 | 0.77 | 1.02 | no change | no change | inactive
SH3GLB2 | 1 | 1 | 1.21 | no change | no change | inactive
SH3GLB2 | 2 | 0.76 | 4.17 | no change | caspase activation | active
SH3GLB2 | 3 | 0.62 | 3.37 | no change | caspase activation | active
SH3GLB2 | 4 | 0.62 | 3.6 | no change | caspase activation | active
KNCN | 1 | 0.8 | 1.27 | no change | no change | inactive
KNCN | 2 | 1.02 | 1.19 | no change | no change | inactive
KNCN | 3 | 0.17 | 3.97 | no change | no change | inactive
KNCN | 4 | 0.84 | 1.59 | no change | no change | inactive
GPER1 | 1 | 0.52 | 3.52 | reduced viability | caspase activation | active
GPER1 | 2 | 0.9 | 2.66 | no change | caspase activation | active
GPER1 | 3 | 0.59 | 2.34 | no change | no change | inactive
GPER1 | 4 | 0.9 | 2.02 | no change | no change | inactive
FABP6 | 1 | 0.94 | 0.82 | no change | no change | inactive
FABP6 | 2 | 0.23 | 2.64 | reduced viability | caspase activation | active
FABP6 | 3 | 0.76 | 0.93 | no change | no change | inactive
FABP6 | 4 | 0.78 | 0.78 | no change | no change | inactive

Records above whose gene name starts with N or n (4):
gene symbol | reagent | viability relative to mock | caspase activity relative to mock | viability hit class | caspase hit class | Call
NAT8B | 1 | 0.28 | 4 | reduced viability | caspase activation | active
NAT8B | 2 | 0.93 | 1.04 | no change | no change | inactive
NAT8B | 3 | 0.94 | 0.99 | no change | no change | inactive
NAT8B | 4 | 0.77 | 1.02 | no change | no change | inactive

The list goes on.
gene symbol | reagent | viability relative to mock | caspase activity relative to mock | viability hit class | caspase hit class | Call
GNG8 | 1 | 0.3 | 1.83 | no change | no change | inactive
GNG8 | 2 | 0.9 | 4.02 | no change | caspase activation | active
GNG8 | 3 | 0.66 | 4.28 | no change | caspase activation | active
GNG8 | 4 | 0.64 | 3.67 | no change | caspase activation | active
SEMA4F | 1 | 0.61 | 6.38 | no change | caspase activation | active
SEMA4F | 2 | 1 | 2.97 | no change | caspase activation | active
SEMA4F | 3 | 0.96 | 1.72 | no change | no change | inactive
SEMA4F | 4 | 0.76 | 1.09 | no change | no change | inactive
CTIF | 1 | 0.23 | 1.32 | no change | no change | inactive
CTIF | 2 | 0.78 | 1.69 | no change | no change | inactive
CTIF | 3 | 0.88 | 1.35 | no change | no change | inactive
CTIF | 4 | 0.76 | 1.97 | no change | no change | inactive
PRKAA2 | 1 | 1.1 | 1.29 | no change | no change | inactive
PRKAA2 | 2 | 0.9 | 1.4 | no change | no change | inactive
PRKAA2 | 3 | 0.46 | 4.14 | reduced viability | caspase activation | active
PRKAA2 | 4 | 1.07 | 1.7 | no change | no change | inactive
